# Values of other authors in patent US20190192601A1, “EXTRACTS OF CYCLANTHERA PEDATA AND FORMULATIONS AND USES THEREOF” (priority 2014, published 2019).
# At least one structure is not confirmed: it was looked up by name or label, or the drawing left a doubt.
# Tested on: monkeys who had been fed an atherogenic diet
# Details: monkey, in vivo
structure (smiles),measurement,value
CCOC(=O)C1=C(COCCN)NC(C)=C(C(=O)OC)C1c1ccccc1Cl (stereo not shown) [Amlodipine],elevated total plasma cholesterol levels,without reducing
